Results as given in paper PMC7898466.
These are yes or no findings as the source states them, for the method shown. For part of these data: In cells and extracts the contact can be indirect. Some entries that bind do so weakly or less than the wild type. For part of these data: Tags and fused reporters may be left off the sequences shown.

Protein sequences, listed by entry. Tags and fused reporters are not part of them.
UniProt Q9UI95: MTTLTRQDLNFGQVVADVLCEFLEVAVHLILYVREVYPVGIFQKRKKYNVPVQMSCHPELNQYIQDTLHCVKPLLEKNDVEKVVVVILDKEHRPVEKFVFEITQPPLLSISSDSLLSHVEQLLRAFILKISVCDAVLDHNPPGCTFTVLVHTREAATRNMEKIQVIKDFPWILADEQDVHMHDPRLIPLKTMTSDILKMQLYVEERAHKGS

Key:
[1] = molecular target: T1, Flag-Polλ (3xFlag human Polλ, full-length ORF) (human) (UniProt Q9UGP5); assay: co-IP; chromatin extracts of GM637 HFs stably expressing Flag-Polλ, with or without UVC (30 J/m^2, 4 h); extracts treated with 1% formalin; FLAG agarose beads overnight at 4°C in IP buffer (150 mM NaCl, Tris-HCl pH 7.5, 1 mM EDTA, 0.05% NP40, 10% glycerol); Western blot with PCNA, Rev7 and Flag antibodies
T1 sequence: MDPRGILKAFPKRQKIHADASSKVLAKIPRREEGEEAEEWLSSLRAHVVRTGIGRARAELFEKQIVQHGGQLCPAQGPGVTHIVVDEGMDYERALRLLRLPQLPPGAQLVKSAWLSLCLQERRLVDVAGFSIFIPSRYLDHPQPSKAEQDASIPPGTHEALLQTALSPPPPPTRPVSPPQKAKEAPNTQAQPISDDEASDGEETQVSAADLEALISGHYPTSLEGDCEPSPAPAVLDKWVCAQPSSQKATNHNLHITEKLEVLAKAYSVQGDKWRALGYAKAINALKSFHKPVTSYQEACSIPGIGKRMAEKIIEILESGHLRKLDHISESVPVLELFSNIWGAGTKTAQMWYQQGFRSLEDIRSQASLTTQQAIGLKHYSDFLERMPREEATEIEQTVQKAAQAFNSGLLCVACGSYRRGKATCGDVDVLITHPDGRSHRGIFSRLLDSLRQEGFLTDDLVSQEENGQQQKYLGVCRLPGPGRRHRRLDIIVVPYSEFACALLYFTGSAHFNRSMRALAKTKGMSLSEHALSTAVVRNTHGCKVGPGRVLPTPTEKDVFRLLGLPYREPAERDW

GST-Rev7 = GST-Rev7 (UniProt Q9UI95); assay: pull-down; ~2 μg GST-Rev7 or GST bound to 20 μl glutathione sepharose beads, incubated with an equal amount of Polλ or Polλ-NTD in 50 μl buffer I (50 mM Tris-HCl pH 7.5, 150 mM NaCl, 5 mM DTT, 0.01% NP-40, 10% glycerol); 25°C 15 min, then 4°C overnight; three washes; elution in SDS loading buffer; Coomassie staining; both purified

Rev7 (endogenous) (from UniProt Q9UI95 1-211)
binding [1]: binds

B1: DNA polymerase λ, full-length (residues 1–575) (enzyme, UniProt Q9UGP5 1-575)
chain: T1 sequence
binding (GST-Rev7): binds

B2: N-terminally truncated Polλ (residues 245–575) (domain or fragment, UniProt Q9UGP5 245-575)
chain: SSQKATNHNLHITEKLEVLAKAYSVQGDKWRALGYAKAINALKSFHKPVTSYQEACSIPGIGKRMAEKIIEILESGHLRKLDHISESVPVLELFSNIWGAGTKTAQMWYQQGFRSLEDIRSQASLTTQQAIGLKHYSDFLERMPREEATEIEQTVQKAAQAFNSGLLCVACGSYRRGKATCGDVDVLITHPDGRSHRGIFSRLLDSLRQEGFLTDDLVSQEENGQQQKYLGVCRLPGPGRRHRRLDIIVVPYSEFACALLYFTGSAHFNRSMRALAKTKGMSLSEHALSTAVVRNTHGCKVGPGRVLPTPTEKDVFRLLGLPYREPAERDW
binding (GST-Rev7): binds
